Holding throughout (assay): yeast two-hybrid
The target in test [1] is T1, Hypothetical Protein 006819-2510, Similar to Hemerocallis Senescence-Related Protein 5, bait fragment aa 1-273 (Oryza sativa).
T1 sequence: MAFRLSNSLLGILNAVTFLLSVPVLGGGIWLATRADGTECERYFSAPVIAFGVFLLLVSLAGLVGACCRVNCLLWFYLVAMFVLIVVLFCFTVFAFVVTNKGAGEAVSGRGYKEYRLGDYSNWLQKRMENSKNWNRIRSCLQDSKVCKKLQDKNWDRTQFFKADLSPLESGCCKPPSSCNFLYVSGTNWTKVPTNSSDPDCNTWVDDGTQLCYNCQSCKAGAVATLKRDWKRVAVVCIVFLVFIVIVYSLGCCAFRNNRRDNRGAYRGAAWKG

Protein sequences, listed by entry. Tags and fused reporters are not part of them. Lines headed by an entry give the natural chain unless they say otherwise; changes in a name come on top.
UniProt Q0JL44: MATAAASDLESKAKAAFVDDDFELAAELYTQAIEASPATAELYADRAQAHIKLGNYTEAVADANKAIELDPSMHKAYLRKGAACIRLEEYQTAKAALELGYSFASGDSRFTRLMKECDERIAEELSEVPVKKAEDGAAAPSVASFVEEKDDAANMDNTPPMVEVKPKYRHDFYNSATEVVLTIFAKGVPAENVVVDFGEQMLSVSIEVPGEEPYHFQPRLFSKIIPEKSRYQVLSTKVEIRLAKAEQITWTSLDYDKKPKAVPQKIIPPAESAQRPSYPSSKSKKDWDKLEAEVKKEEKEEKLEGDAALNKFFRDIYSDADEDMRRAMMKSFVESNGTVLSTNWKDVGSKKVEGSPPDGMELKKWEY

Test [2] addresses T2, Hypothetical Protein 006819-2510, Similar to Hemerocallis Senescence-Related Protein 5, bait fragment aa 1-150 (Oryza sativa).
T2 sequence: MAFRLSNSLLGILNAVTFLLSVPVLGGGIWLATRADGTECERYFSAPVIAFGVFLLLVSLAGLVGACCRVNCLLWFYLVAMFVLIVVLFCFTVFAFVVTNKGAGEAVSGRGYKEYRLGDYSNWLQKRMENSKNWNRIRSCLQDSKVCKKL

Test [3] addresses OsSGT1, bait fragment aa 200-368 (Oryza sativa) (UniProt Q0JL44).

These are yes or no findings as the source states them, for the method shown. Some entries that bind do so weakly or less than the wild type.

The results in this text go back to US20060235215A1.

As for GEKKGFMDKIKEKLPGQH [O. sativa DEHYDRIN RAB 16B, prey clone aa 147-164], the binding result in test [1] is reported as “binds”.

With GEHHKKDGEHKEGVVEKIKDKITGDHGDGGEH [Oryza sativa Low Temperature-Induced Protein 5, prey clone aa 29-60], the binding entry in test [2] is “binds”.

B1: RNA binding domain protein PN23914, prey clone aa 1-263 (protein)
chain: MEGGGEVGWYVLGPNQEHVGPYALSELREHFANGYISESSMLWAEGRSEWMPLSSIPDLLAVVTKKDQPDEGIEDDFDKFQKEVIEAEAEVEASTDKAADNDINQEHGADDPDDRPATPPDGEDEFTDDDGTVYKWDRVLRAWVPQDDLEGKNDNYEVEDMTFAHEEEVFQAPDIAGSTTLEENNVSAEIEIKEPPKVEKRAHKKRKSSEKPADKKEAYKPPDSWVDLKVNTHVYVTGLPDDVTAEEIVEVFSKCGIIKEDPE
In the case of B1, the binding entry in test [3] is on record as “binds”.

In the case of KGPWKQKKIKNPNYQGKWK [O. sativa Calreticulin Precursor, prey clone aa 283-301], in test [1], the binding result is listed as “binds”.
